In the supplement of paper PMC11732987, “Enantioselective OTUD7B fragment discovery through chemoproteomics screening and high-throughput optimisation” (Communications Chemistry, 2025):
The list shows a part of the results. The data scatter; read single values as rough.

By UniProt entry, the sequences of proteins in these tests, tags left out. Where a name states a change or a piece, a line headed by the entry shows the natural chain unless it says otherwise. Residues count along the entry.
UniProt Q15390: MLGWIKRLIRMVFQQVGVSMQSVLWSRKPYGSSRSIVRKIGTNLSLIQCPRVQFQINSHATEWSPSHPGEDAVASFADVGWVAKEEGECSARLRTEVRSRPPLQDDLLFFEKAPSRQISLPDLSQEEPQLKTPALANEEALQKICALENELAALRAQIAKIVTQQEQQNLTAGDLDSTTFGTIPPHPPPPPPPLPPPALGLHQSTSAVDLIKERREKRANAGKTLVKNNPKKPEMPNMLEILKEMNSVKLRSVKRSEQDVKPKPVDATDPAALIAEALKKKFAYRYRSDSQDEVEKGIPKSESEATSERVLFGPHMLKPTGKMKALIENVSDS
UniProt Q5VVJ2: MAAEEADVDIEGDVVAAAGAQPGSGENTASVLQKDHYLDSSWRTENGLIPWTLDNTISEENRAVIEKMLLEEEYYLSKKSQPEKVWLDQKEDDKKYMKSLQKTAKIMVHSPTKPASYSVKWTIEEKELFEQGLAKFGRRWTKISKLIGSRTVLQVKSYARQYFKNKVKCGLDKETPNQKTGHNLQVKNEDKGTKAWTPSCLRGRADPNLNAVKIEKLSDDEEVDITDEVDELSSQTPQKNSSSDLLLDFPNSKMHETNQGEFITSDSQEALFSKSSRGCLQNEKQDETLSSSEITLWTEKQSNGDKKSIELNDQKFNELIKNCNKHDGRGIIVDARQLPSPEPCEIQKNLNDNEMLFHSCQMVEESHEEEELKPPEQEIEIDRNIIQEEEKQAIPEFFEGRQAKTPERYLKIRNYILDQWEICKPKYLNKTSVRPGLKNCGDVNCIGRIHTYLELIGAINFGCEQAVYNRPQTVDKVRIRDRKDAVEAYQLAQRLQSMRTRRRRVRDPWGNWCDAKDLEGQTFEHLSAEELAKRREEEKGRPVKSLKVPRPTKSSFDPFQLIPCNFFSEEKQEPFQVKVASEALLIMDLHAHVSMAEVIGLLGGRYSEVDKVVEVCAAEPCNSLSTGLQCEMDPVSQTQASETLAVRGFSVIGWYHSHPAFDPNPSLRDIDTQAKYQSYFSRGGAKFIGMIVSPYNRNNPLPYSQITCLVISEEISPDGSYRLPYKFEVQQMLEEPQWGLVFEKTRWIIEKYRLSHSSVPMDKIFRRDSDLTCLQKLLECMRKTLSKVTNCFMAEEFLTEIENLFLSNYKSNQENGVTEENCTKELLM
UniProt P41227: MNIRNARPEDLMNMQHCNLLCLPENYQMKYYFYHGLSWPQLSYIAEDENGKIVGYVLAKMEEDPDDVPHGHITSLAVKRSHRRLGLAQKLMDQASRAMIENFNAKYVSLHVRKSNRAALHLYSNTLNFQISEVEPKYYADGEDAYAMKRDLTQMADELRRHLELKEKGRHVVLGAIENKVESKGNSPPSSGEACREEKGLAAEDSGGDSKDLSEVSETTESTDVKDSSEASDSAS
UniProt Q14872: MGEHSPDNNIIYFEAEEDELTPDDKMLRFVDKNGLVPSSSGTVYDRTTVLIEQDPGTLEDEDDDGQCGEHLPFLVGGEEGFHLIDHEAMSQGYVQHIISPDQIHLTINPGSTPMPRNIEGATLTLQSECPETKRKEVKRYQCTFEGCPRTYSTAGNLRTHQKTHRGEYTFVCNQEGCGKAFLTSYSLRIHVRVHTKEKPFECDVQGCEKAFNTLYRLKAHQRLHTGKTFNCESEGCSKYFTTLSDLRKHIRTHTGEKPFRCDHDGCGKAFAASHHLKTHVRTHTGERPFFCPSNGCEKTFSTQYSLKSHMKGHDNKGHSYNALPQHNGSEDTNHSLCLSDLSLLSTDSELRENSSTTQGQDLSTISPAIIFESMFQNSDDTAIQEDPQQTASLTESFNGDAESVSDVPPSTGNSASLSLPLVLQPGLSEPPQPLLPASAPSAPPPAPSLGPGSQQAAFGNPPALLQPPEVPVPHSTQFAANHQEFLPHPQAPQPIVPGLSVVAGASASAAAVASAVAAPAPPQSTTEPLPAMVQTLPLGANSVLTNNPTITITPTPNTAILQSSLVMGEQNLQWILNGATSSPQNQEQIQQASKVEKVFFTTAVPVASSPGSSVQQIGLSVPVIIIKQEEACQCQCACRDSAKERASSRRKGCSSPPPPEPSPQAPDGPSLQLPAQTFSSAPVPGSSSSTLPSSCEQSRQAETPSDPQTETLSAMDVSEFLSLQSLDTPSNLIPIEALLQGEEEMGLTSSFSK
UniProt Q4G0N4: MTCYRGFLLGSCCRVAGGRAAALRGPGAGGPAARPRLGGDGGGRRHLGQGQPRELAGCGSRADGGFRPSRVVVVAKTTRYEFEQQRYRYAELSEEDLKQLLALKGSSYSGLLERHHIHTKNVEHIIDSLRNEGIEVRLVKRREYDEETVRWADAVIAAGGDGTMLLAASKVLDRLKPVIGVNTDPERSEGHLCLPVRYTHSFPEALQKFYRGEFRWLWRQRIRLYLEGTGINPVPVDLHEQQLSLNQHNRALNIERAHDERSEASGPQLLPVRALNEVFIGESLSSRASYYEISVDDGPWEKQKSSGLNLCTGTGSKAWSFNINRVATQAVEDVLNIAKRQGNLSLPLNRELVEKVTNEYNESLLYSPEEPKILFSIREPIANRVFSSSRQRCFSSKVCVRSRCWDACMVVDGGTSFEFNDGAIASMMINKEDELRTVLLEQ
UniProt O43795: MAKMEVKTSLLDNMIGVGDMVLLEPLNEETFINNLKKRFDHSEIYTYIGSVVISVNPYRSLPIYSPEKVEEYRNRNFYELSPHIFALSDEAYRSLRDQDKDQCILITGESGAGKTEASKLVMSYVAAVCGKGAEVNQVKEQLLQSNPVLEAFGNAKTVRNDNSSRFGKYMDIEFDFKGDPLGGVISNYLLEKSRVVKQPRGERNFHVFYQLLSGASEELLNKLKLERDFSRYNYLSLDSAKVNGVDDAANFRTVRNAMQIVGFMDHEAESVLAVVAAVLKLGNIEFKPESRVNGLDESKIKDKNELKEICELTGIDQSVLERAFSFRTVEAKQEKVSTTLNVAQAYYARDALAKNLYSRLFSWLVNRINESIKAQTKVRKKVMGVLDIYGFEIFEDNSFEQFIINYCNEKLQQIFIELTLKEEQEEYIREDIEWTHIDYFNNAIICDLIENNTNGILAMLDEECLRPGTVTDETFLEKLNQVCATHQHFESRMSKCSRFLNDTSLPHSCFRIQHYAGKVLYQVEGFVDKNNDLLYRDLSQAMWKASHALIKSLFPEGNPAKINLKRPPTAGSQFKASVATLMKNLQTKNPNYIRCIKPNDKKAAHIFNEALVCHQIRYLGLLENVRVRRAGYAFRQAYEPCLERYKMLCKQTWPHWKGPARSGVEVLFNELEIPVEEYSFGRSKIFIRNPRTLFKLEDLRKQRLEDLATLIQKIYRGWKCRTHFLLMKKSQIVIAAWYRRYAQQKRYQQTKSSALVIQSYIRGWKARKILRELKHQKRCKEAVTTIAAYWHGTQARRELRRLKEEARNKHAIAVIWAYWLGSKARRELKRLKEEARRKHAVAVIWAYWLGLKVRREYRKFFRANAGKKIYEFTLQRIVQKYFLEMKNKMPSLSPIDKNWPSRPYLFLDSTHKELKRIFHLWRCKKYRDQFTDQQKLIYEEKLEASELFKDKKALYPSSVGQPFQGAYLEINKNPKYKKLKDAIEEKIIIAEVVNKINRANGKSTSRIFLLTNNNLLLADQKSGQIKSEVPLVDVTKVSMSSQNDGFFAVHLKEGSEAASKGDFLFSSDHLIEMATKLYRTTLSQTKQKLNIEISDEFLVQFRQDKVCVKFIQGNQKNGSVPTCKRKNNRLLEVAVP
UniProt Q9UHQ1, 249-271: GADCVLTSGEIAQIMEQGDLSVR
UniProt Q68DK7, 52-77: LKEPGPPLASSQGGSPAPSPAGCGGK
UniProt Q6N069, 804-824: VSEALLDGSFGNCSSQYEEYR
UniProt P52701: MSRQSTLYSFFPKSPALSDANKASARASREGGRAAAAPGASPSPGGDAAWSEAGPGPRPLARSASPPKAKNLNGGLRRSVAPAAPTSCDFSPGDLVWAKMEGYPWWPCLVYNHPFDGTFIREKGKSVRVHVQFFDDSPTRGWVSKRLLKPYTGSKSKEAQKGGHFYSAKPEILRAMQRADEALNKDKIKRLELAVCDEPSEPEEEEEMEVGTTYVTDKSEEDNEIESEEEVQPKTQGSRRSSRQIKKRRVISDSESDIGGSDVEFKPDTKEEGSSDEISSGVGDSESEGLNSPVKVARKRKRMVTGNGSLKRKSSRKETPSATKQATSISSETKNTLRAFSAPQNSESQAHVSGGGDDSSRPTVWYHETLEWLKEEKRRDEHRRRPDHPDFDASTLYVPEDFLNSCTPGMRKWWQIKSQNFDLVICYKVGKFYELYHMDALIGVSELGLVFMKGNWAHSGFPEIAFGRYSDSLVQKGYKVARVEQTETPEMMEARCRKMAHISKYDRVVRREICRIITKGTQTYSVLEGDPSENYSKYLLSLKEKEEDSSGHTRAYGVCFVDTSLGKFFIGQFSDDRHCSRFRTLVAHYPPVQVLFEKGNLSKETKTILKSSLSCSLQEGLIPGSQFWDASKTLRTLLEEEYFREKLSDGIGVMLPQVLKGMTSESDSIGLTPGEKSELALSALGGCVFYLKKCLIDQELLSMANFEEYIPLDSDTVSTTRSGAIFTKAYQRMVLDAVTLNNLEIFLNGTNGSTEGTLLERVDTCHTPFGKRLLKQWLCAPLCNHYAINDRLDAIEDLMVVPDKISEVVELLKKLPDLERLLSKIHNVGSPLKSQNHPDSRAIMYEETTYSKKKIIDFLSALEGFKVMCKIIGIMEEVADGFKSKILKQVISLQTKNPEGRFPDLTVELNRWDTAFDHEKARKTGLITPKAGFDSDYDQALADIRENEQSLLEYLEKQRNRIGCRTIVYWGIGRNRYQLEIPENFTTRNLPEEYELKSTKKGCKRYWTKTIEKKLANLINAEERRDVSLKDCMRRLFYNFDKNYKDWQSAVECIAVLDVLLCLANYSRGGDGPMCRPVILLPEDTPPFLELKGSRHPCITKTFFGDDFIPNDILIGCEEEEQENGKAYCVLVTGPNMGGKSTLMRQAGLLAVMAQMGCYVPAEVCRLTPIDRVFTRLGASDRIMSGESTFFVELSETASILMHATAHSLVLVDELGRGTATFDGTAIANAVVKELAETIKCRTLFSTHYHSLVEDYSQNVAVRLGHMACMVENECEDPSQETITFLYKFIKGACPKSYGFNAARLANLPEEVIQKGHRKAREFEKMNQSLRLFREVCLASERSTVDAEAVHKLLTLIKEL
UniProt Q9UM54, 368-387: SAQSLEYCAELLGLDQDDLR
UniProt Q9UM54, whole entry, looked up: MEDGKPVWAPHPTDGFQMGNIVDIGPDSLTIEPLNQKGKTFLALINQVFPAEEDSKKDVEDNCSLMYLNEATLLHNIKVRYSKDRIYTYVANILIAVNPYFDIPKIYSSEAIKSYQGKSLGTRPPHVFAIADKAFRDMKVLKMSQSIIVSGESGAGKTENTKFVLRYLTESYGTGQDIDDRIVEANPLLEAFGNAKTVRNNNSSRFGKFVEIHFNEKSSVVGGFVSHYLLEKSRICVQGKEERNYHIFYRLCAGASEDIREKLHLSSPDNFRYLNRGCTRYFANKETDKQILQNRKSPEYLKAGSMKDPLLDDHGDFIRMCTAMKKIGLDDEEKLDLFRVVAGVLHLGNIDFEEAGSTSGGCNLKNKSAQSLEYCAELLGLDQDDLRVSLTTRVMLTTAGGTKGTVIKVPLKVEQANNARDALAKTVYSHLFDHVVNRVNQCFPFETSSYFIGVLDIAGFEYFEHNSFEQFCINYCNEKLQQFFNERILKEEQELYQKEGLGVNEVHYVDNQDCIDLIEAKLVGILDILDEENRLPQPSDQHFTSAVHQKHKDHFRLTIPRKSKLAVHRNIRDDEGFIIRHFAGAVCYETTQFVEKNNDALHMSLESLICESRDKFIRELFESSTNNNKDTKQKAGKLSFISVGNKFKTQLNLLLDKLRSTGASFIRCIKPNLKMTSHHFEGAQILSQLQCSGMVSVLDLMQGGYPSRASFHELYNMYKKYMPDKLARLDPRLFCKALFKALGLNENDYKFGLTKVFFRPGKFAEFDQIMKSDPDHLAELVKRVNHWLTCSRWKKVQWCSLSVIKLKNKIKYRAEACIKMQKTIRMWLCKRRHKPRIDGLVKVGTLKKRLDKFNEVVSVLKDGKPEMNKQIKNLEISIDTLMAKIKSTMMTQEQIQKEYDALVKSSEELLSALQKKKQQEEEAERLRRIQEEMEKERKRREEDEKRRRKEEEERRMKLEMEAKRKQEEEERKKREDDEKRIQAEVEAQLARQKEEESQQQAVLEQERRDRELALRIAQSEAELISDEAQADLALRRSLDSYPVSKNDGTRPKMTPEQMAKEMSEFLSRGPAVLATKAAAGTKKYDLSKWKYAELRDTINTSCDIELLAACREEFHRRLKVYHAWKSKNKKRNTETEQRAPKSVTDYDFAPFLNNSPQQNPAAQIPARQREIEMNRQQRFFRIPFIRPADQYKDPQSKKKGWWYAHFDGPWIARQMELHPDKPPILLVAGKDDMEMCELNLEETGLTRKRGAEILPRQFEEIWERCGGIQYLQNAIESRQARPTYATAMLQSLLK

Legend:
[1] = compound: ClCC(=O)N[C@@H]1CCCc2ccccc12; assay: log2 mean competition ratio of IA-DTB cysteine labelling (DMSO/compound) (log2 ratio); higher = stronger cysteine engagement by compound; conditions: treatment time: 4 h, cell line lysate: HEK293T
Protocol: (§1)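 IA-DTB competitive cysteine chemoproteomics in HEK293T RIPA lysate. Lysates were treated with compound 29 or 30 at 50 or 200 µM for 4 h, then IA-DTB (500 µM, 1 h), trypsin-digested, NeutrAvidin-enriched and analysed by diaPASEF. Competition ratio = intensity DMSO / intensity compound (n=4 treated, n=64 DMSO); binding: mean log2 CR ≥ 1 and p ≤ 0.05 plus QC filters. Target is the cysteine site.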

[2] = compound: ClCC(=O)N[C@H]1CCCc2ccccc12; assay: as above; conditions: treatment time: 4 h, cell line lysate: HEK293T
Protocol: as §1

Target	log2 mean competition ratio ([1]; 50 µM)	log2 mean competition ratio ([1]; 200 µM)	log2 mean competition ratio ([2]; 50 µM)	log2 mean competition ratio ([2]; 200 µM)
MTFR1 C145 (UniProt Q15390)	0.625	0.271	0.238	0.233
MYSM1 C344 (UniProt Q5VVJ2)	-0.485	-0.0988	-0.0175	0.375
MRPL19 C248 (UniProt P49406)	-0.114	-0.105	0.0178	-0.0416
MYBL2 C668 (UniProt P10244)	-0.0828	0.219	-0.0144	0.422
MTMR10 C314 (UniProt Q9NXD2)	0.255	-0.129	0.548	0.178
NACC1 C416 (UniProt Q96RE7)	0.195	0.23	0.137	0.161
MTMR12 C694 (UniProt Q9C0I1)	0.0318	0.384	-0.0012	0.117
MRPS12 C132 (UniProt O15235)	0.188	-0.313	0.232	-0.306
MYO1D C491 (UniProt O94832)	-0.109	0.0484	-0.049	-0.111
NAA10 C194 (UniProt P41227)	-0.135	0.0161	-0.112	-0.0141
MYO5A C535 (UniProt Q9Y4I1)	-0.143	-0.262	0.281	-0.19
MYO9A C1541 (UniProt B2RTY4)	0.0527	-0.00547	0.391	0.145
MRPL37 C153 (UniProt Q9BZE1)	0.106	0.0206	-0.178	-0.325
MTBP C691	0.105	-0.195	-0.155	-0.0904
MYO5B C681	0.271	0.0766	0.0748	-0.031
NADSYN1 C531 (UniProt Q6IA69)	-0.196	-0.234	-0.104	-0.258
MTMR3 C867 (UniProt Q13615)	-0.131	-0.034	0.466	0.271
MZT2B;MZT2A C80;(C80)	-0.0821	0.165	0.132	0.289
NAA30 C195 (UniProt Q147X3)	0.29	0.48	0.189	0.265
MTF1 C129 (UniProt Q14872)	-0.0266	-0.199	-0.129	-0.0719
MYO19 C275 (UniProt Q96H55)	-0.192	0.215	-0.323	0.0869
NADK2 C311 (UniProt Q4G0N4)	0.104	-0.341	-0.1	-0.0957
MTCL1 C1628 (UniProt Q9Y4B5)	-0.0785	0.0454	0.063	0.0679

A run of entries of the results above, as a working copy:
Target	log2 mean competition ratio ([1]; 50 µM)	log2 mean competition ratio ([1]; 200 µM)	log2 mean competition ratio ([2]; 50 µM)	log2 mean competition ratio ([2]; 200 µM)
MYSM1 C344 (UniProt Q5VVJ2)	-0.485	-0.0988	-0.0175	0.375
MRPL19 C248 (UniProt P49406)	-0.114	-0.105	0.0178	-0.0416

Continued.

Target	log2 mean competition ratio ([1]; 50 µM)	log2 mean competition ratio ([1]; 200 µM)	log2 mean competition ratio ([2]; 50 µM)	log2 mean competition ratio ([2]; 200 µM)
MYCBP2 C3824 (UniProt O75592)	-0.0321	0.186	-0.0102	0.164
NAA15 C721	0.141	-0.265	0.23	-0.234
MYO1B C1123 (UniProt O43795)	0.0367	0.0575	0.271	0.119
MRPL44 C136 (UniProt Q9H9J2)	0.322	-0.0702	0.827	-0.282
MTHFD1 C785	0.195	0.0685	0.21	0.0156
MTFR1 C89 (UniProt Q15390)	0.00352	0.132	0.272	0.147
NARF C252 (UniProt Q9UHQ1)	-0.43	0.133	-0.48	-0.0953
MTM1 C53 (UniProt Q13496)	-0.214	-0.45	-0.394	-0.576
MRPS9 C330 (UniProt P82933)	-0.0727	-0.201	0.0405	-0.0315
MSL1 C74 (UniProt Q68DK7)	0.221	0.587	-0.133	0.0436
MRPL28 C154 (UniProt Q13084)	0.312	1.96	0.0308	1.79
MYO9A C1973 (UniProt B2RTY4)	-0.162	-0.108	-0.207	-0.0613
MYO19 C515 (UniProt Q96H55)	0.45	0.247	0.766	0.166
NAA16 C816 (UniProt Q6N069)	-0.359	-0.0203	0.319	-0.0171
MTMR2 C155 (UniProt Q13614)	-0.174	-0.105	-0.0426	-0.0831
MRPS9 C233 (UniProt P82933)	-0.24	-0.195	0.24	-0.224
MTREX C430 (UniProt P42285)	-0.281	-0.235	-0.331	-0.32
N4BP2 C1438 (UniProt Q86UW6)	0.354	-0.166	0.107	-0.082
MSH6 C1129 (UniProt P52701)	0.0896	-0.011	0.0744	-0.0286
MYH9 C1437 (UniProt P35579)	-0.147	-0.116	0.226	-0.0898
MYO6 C375 (UniProt Q9UM54)	-0.131	-0.243	-0.0641	-0.222
MYO6 C790 (UniProt Q9UM54)	0.508	0.339	0.369	0.0752
MTA2 C261 (UniProt O94776)	0.411	0.323	0.153	0.217
